The text below walks through data of the supplement of paper PMC8616043.

SMILES strings stand for the structures. Structures can show the parent of a compound that is named as a salt. This is one part of the list. This data set is noisy: repeats of one test often differ as much as different tests do.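 Human U-2 OS cells stably expressing a GFP sensor with a nuclear import signal and classical export signal were transfected to produce PR50, a 50-repeat proline–arginine dipeptide from ALS/FTD gene C9ORF72. Nuclear-minus-cytoplasm GFP was scaled from DMSO (low) to PR-only (high), scored against plate test wells; strongly negative scores marked PR-reversing hits.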

This test has as its system U-2 OS NCT-C biosensor cells expressing PR50. The test can be described thus: Z-score of normalised NCT-C biosensor translocation index in PR50-expressing cells; higher = more nuclear biosensor (more disrupted nuclear export). Conditions: 3 µM; 24 h.
On to `Cn1ccc2cc(NC(=O)Nc3cccnc3)ccc21`, for which the Z-score was inactive: -0.1. The result for `O=c1oc2ccccc2c(O)c1Cc1c(O)c2ccccc2oc1=O` [Dicoumarol] reads inactive: -0.876. As for `CC(=O)[C@]1(O)Cc2c(O)c3c(c(O)c2[C@@H](O[C@H]2C[C@H](N)[C@H](O)[C@H](C)O2)C1)C(=O)c1ccccc1C3=O` [Idarubicin hydrochloride], the Z-score was inactive: 0.295.

With `Nc1nc(=S)c2[nH]cnc2[nH]1` [6-Thioguanine], the Z-score was inactive: -1.03.

On to `CC(/C=C1\SC(=S)N(CC(=O)O)C1=O)=C\c1ccccc1` [Epalrestat], for which the Z-score was inactive: -0.238. The result for `CCCOc1ccn2c(C(C)=O)cc(-c3ccccc3S(C)(=O)=O)c2c1` reads inactive: -0.281; that for `CN1CCN(CCCN2c3ccccc3Sc3ccc(Cl)cc32)CC1` [Prochlorperazine dimaleate], inactive: 0.21; that for `CC(=O)OCC(CCn1cnc2cnc(N)nc21)COC(C)=O` [Famciclovir], inactive: -0.0403.

As for `COc1ccc([C@@H]2CC(=O)c3c(O)cc(O[C@@H]4O[C@H](CO)[C@@H](O)[C@H](O)[C@H]4O[C@@H]4O[C@@H](C)[C@H](O)[C@@H](O)[C@H]4O)cc3O2)cc1O` [Neohesperidin], the Z-score was inactive: 0.217.

Regarding `NNc1nncc2ccccc12` [Hydralazine·HCl], the Z-score is inactive: 0.147. On to `NNc1nncc2ccccc12` [Hydralazine], for which the Z-score is inactive: -1.32. The result for `NNc1nncc2ccccc12` [Hydralazine HCl] reads inactive: -0.115. In the case of `O=C(/C=C/c1ccc(O)c(O)c1)OCCc1ccccc1` [Caffeic acid phenethyl ester], the Z-score is inactive: -0.765.

On to `C[C@H](CCC(=O)O)[C@H]1CC[C@H]2[C@@H]3[C@H](O)C[C@@H]4C[C@H](O)CC[C@]4(C)[C@H]3CC[C@]12C` [Chenodiol (Chenodeoxycholic Acid)], for which the Z-score was inactive: 0.311.

In the case of `CC[C@H](C)C(=O)O[C@H]1CCC=C2C=C[C@H](C)[C@H](CC[C@@H]3C[C@@H](O)CC(=O)O3)[C@H]21` [Mevastatin], the Z-score is inactive: -0.595. In the case of `COc1c2occc2c(OC)c2c(=O)cc(C)oc12` [Khellin], the Z-score is inactive: 0.0222. Turning to `CCC(C)N(C)C(=O)c1cc2ccccc2c(-c2ccccc2Cl)n1` (stereo not given), the Z-score was inactive: 2.86. For the molecule `Nc1nc2ccc(Cl)cc2c2nc(-c3ccco3)nn12`, the Z-score was inactive: 0.161. On to `COc1cc2c(c(OC)c1OC)-c1ccc(OC)c(=O)cc1[C@@H](NC=O)CC2` [N-Formyl-Deacetylcolchicine], for which the Z-score was inactive: -0.52. For the molecule `CCOC(=O)Nc1cc(-c2ccc(C)c(NS(C)(=O)=O)c2)nn2c(C)nnc12` [Bromosporine], the Z-score was inactive: -0.717.
